From the supplement of paper PMC10849652
Some of the results follow. Residues, ends and D or L forms follow the SMILES beside them. *: point of attachment. Cbz = O=C(OCc1ccccc1)*

By UniProt entry, the sequences of proteins in these tests, tags left out. Where a name states a change or a piece, a line headed by the entry shows the natural chain unless it says otherwise.
UniProt Q9UPT8: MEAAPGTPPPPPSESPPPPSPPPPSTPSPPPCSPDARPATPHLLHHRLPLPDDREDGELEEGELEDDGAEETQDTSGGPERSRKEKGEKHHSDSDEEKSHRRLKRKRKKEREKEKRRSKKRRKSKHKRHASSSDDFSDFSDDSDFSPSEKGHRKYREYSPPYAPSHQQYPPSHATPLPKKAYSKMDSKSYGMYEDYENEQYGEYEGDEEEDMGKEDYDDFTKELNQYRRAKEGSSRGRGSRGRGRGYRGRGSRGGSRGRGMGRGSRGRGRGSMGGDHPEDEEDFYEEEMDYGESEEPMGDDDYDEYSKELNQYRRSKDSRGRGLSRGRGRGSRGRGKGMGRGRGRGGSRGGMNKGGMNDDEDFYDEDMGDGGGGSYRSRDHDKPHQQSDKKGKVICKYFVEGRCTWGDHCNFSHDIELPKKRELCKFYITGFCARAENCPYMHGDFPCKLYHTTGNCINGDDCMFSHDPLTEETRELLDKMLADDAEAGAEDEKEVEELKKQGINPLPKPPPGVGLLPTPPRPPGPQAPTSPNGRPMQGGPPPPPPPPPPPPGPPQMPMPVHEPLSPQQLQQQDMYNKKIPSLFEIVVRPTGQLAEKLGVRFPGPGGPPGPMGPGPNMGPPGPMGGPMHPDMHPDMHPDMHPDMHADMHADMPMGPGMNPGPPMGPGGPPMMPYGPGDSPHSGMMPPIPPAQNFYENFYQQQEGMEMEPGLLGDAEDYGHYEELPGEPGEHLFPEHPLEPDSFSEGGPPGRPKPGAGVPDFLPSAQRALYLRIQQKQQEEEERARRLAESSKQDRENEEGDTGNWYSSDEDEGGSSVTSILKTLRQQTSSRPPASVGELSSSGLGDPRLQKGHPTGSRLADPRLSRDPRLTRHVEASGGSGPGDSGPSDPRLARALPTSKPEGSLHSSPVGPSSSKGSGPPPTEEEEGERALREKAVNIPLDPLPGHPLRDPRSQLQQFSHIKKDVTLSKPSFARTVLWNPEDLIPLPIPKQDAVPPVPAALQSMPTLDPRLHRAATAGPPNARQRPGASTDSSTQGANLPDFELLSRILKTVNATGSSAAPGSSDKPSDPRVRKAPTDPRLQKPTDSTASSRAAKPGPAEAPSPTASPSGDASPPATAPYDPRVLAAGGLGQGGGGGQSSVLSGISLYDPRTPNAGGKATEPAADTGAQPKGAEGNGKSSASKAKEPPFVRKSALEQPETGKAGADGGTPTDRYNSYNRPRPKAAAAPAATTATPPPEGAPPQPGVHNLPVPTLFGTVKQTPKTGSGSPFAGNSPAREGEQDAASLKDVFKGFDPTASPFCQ
UniProt Q9BW85: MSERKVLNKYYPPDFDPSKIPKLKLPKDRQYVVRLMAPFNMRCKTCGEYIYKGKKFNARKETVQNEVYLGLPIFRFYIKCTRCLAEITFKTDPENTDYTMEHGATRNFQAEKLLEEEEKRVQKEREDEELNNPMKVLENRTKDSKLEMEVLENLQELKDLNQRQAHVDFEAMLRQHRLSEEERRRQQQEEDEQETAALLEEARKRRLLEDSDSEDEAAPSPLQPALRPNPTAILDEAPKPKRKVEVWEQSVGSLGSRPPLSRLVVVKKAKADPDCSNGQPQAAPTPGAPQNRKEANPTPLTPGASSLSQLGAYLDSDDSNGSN
UniProt Q8IZN3: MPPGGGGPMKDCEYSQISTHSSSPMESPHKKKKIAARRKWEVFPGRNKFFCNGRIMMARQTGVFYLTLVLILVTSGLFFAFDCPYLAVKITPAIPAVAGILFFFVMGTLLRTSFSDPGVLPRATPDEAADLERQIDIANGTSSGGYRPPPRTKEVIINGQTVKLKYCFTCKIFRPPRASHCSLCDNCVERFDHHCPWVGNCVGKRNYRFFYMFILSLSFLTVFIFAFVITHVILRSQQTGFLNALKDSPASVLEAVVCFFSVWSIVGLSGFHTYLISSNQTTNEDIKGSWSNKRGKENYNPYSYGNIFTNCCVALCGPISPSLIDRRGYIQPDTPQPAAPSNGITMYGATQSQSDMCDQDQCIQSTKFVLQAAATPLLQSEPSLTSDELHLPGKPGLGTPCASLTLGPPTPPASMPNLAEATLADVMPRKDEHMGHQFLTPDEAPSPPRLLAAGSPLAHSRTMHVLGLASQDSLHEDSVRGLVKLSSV
UniProt Q96TA2: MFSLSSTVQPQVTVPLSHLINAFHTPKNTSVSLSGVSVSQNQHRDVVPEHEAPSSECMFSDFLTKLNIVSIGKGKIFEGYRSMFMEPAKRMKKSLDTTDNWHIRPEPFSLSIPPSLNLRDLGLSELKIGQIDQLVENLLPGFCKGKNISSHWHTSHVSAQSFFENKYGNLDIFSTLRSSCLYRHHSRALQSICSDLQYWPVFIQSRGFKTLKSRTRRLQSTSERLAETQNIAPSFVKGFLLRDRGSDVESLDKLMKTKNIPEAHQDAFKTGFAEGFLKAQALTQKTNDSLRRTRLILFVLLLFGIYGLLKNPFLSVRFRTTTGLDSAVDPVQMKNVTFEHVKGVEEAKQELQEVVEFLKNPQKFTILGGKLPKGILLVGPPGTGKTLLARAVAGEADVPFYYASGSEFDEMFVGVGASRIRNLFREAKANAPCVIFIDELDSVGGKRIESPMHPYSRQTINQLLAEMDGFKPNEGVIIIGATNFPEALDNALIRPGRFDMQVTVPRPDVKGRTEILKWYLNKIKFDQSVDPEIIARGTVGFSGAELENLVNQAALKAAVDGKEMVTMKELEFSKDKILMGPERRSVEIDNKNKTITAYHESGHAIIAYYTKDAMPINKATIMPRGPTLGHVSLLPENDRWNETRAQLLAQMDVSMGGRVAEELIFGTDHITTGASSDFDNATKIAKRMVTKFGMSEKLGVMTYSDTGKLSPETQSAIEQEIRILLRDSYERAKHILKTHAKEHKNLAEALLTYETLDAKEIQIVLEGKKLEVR
UniProt Q9Y5A9: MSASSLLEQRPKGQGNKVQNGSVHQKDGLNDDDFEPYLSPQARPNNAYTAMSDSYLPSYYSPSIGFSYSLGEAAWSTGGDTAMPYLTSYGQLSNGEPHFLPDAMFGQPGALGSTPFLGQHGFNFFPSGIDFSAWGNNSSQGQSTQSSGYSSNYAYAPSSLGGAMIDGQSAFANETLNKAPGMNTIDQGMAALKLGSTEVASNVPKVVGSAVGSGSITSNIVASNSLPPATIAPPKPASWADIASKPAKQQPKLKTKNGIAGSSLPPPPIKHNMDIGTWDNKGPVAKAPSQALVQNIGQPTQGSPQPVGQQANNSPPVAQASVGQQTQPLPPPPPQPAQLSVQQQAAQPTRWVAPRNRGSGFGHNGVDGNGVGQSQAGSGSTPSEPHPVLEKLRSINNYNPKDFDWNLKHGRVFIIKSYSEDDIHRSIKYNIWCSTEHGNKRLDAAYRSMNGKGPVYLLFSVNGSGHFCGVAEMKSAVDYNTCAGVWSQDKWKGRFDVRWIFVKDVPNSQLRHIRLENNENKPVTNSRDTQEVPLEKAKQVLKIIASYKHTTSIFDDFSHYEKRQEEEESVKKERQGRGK
UniProt Q6PJT7: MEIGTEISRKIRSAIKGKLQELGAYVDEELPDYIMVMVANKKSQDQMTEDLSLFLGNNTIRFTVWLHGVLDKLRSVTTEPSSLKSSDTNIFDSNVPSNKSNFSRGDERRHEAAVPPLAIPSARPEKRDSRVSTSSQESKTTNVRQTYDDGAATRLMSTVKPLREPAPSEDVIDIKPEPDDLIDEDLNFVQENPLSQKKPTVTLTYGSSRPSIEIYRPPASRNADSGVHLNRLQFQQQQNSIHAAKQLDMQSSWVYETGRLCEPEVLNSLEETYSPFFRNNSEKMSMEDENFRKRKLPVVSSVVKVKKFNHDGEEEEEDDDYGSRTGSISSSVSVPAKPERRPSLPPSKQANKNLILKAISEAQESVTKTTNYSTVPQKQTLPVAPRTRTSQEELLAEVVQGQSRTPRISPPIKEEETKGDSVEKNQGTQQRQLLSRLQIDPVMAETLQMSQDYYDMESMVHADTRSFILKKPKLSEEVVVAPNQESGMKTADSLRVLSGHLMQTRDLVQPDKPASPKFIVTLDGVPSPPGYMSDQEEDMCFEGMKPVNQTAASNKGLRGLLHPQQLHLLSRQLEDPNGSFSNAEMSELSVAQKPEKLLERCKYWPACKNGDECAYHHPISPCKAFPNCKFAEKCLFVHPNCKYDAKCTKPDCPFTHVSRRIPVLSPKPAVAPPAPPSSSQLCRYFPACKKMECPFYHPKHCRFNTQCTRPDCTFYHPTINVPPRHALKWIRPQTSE
UniProt Q8IY57: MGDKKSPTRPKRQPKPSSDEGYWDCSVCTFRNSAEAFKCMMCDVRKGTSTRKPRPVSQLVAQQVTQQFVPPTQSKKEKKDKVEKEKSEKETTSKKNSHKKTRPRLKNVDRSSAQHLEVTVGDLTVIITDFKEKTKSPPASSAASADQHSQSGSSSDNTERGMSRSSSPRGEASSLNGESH
UniProt P16989, whole entry, looked up: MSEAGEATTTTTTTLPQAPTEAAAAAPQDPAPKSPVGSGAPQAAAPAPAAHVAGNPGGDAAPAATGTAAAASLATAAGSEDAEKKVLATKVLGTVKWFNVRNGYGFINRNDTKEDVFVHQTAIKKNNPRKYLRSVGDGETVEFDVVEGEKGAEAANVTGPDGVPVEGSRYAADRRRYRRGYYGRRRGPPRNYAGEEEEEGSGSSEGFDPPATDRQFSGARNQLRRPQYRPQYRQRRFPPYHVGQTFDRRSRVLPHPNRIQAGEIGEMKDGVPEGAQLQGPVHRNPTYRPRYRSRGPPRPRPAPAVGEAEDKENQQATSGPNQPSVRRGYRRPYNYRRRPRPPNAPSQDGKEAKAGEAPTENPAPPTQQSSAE
UniProt Q8WU90: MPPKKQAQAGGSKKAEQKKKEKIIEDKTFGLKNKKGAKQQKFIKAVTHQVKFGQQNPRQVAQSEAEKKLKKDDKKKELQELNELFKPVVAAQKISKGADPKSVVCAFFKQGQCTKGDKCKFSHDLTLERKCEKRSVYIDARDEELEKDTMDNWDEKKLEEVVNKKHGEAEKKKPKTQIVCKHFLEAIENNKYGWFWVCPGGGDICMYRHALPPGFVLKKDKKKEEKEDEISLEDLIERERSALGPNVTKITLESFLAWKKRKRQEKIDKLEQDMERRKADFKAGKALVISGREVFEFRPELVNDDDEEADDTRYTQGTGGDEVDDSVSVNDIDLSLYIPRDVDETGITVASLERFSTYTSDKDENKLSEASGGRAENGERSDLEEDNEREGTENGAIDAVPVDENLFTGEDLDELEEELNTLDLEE
UniProt Q7Z739: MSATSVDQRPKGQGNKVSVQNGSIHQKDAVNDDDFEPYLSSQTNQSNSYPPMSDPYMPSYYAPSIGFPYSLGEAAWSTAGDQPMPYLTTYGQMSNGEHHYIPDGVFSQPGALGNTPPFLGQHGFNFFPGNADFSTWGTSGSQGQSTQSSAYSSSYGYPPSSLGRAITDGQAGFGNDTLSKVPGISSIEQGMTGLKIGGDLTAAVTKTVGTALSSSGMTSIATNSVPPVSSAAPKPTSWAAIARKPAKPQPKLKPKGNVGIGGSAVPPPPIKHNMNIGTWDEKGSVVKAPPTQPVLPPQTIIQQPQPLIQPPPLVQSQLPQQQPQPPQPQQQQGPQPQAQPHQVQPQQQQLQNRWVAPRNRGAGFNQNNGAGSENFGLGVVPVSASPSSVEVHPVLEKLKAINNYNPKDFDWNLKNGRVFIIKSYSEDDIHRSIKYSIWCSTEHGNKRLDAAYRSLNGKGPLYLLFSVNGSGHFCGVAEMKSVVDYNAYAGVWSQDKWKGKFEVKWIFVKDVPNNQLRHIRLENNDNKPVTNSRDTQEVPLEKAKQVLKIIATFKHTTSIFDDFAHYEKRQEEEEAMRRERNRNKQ
UniProt Q9UBH6: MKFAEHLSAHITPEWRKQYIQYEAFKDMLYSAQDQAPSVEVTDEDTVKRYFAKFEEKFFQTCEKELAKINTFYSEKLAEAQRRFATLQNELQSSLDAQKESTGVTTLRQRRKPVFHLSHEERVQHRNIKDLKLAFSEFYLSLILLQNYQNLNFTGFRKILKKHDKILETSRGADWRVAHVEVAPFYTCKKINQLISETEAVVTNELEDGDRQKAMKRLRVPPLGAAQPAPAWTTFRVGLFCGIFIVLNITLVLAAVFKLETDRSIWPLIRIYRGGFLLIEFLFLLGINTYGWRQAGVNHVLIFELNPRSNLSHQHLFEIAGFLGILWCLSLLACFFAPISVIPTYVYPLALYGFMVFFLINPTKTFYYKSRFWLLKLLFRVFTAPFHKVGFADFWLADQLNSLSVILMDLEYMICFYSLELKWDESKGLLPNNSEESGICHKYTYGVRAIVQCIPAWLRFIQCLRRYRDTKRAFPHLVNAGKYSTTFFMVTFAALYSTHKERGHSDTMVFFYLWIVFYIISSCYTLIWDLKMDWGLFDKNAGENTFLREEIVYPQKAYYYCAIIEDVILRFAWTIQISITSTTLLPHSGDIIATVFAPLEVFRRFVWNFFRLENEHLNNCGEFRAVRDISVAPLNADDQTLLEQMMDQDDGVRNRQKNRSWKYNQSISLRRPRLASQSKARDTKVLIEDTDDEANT

Legend:
Assay in all cases: log2 fold change, soluble protein after heating vs DMSO (PISA); higher = thermal stabilisation; K562 cells, 10 uM, 30 min; active = over 0.2 and 3.5 SD of the protein, either way, in both replicates (recomputed)
[1] = compound: C#Cc1cccc(Nc2ncnc3cc(OCCOC)c(OCCOC)cc23)c1 [erlotinib]
Outline: (§1)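 For each measurement, 10 μM compound was applied for 30 min to K562 cells at 2×10^6 cells/mL. Aliquots were heated for 3 min across 48°C-58°C, pooled, and extracted in PBS with 0.5% NP-40 at 4°C; the supernatant after 21,000xg for 90 min was soluble protein. This was quantified by TMTpro 16plex LC-MS/MS with channel sums equalised, and thermal stability was reported relative to control samples from duplicates, on a log2 fold-change scale.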

[2] = compound: C/C(=N\NC(=O)C1=CC(=CC=C1)S(=O)(=O)N2CCOCC2)/C3=C(C=CC(=C3)Cl)O
Outline: as §1

[3] = compound: C1=CC(=C(C=C1Cl)C2=NC3=NC=CN=C3C(=N2)NC4=CC=NC=C4)F
Outline: as §1

[4] = compound: C1=CC(=CC=C1C2=NC3=C(N2)C=C(C=C3)C(=O)N)OC4=CC=C(C=C4)Cl
Outline: as §1

[5] = compound: C1=CC2=C(C=CC(=C2)/C=C\3/C(=O)NC(=NCC4=CC=CS4)S3)N=C1
Outline: as §1

[6] = compound: C1=CC2=NC=CN=C2C=C1/C=C/3\C(=O)NC(=O)S3
Outline: as §1

[7] = compound: C1=CC=C(C=C1)C2=NC(=C(N2)C3=CC=NC=C3)C4=CC(=C(C=C4)Cl)O
Outline: as §1

[8] = compound: C1=CC=C2C(=C1)C3=NNC4=CC=CC(=C43)C2=O
Outline: as §1

[9] = compound: C1CCN(C1)C(=O)NC2=CC=CC(=C2)NC3=NC=C(C(=N3)NCCC4=CN=CN4)Br
Outline: as §1

[10] = compound: C1CN(CCC1(CC2=CC=C(C=C2)Cl)N)C3=NC=NC4=C3C=CN4
Outline: as §1

[11] = compound: C1COCCN1CCN2C3=CC=CC=C3N=C2NC(=O)C4=CC(=CC=C4)[N+](=O)[O-] [IRAK-1-4 Inhibitor I]
Outline: as §1

[12] = compound: C=CC(=O)N1CCC[C@@H](n2nc(-c3ccc(Oc4ccccc4)cc3)c3c(N)ncnc32)C1 [ibrutinib]
Outline: as §1

[13] = compound: CC(=O)c1cnc2ccc(-c3cc(Cl)c(O)c(Cl)c3)nc2c1N[C@H]1CC[C@H](CN(C)C)CC1
Outline: as §1

[14] = compound: CC(C)(C)Cn1c(N)nc2ccc(-c3[nH]c(C(C)(C)C)nc3-c3ccc(F)cc3)nc21 [ralimetinib]
Outline: as §1

[15] = compound: CC(C)(O)CC(=O)NCCn1ccc2ncnc(Nc3ccc(Oc4cccc(C(F)(F)F)c4)c(Cl)c3)c21
Outline: as §1

[16] = compound: CC(C)C1=C2N=C(C=C(N2N=C1)NCC3=CC=CC=C3)NCCCCCCN
Outline: as §1

[17] = compound: CC(C)C[C@@H](C=O)NC(=O)[C@H](CC(C)C)NC(=O)[C@H](CC(C)C)NC(=O)OCc1ccccc1
Outline: as §1

[18] = compound: CC(C)N(C[C@H]1O[C@@H](n2cnc3c(N)ncnc32)[C@H](O)[C@@H]1O)[C@H]1C[C@@H](CCc2nc3cc(C(C)(C)C)ccc3[nH]2)C1 [pinometostat]
Outline: as §1

[19] = compound: CC1=C(C(CC(=O)N1)C2=CC=C(C=C2)C(F)(F)F)C(=O)NC3=C(C=C4C(=C3)C=NN4)F
Outline: as §1

[20] = compound: CC1=C(C2=C(C=C1)C(=O)C3=CC=CC=C3N2CCCN)C
Outline: as §1

Measured: log2 fold change

ZC3H4 (UniProt Q9UPT8)
inactive: [1] -0.142 | [2] -0.185 | [3] -0.349 | [4] 0.004 | [5] -0.146 | [6] -0.025 | [7] -0.054 | [8] -0.004 | [9] -0.003 | [10] -0.081 | [11] -0.089 | [12] 0.024 | [13] 0.059 | [14] 0.099 | [15] 0.106 | [16] 0.041 | [17] 0.071 | [18] 0.139 | [19] 0.009 | [20] -0.147

YDJC (UniProt A8MPS7)
inactive: [1] 0.046 | [2] 0.065 | [3] 0.009 | [4] -0.104 | [5] 0.025 | [6] 0.05 | [7] 0.08 | [8] 0.027 | [9] -0.009 | [10] -0.044 | [11] 0.013 | [12] 0.064 | [13] -0.002 | [14] 0.056 | [15] -0.015 | [16] -0.073 | [17] -0.027 | [18] -0.031 | [19] -0.025 | [20] 0.009

ZBTB8OS (UniProt Q8IWT0)
inactive: [1] -0.045 | [2] 0.034 | [3] 0.067 | [4] -0.006 | [5] 0.09 | [6] 0.033 | [7] -0.069 | [8] 0.017 | [9] 0.063 | [10] -0.086 | [11] -0.052 | [12] -0.054 | [13] -0.099 | [14] -0.114 | [15] -0.043 | [16] -0.039 | [17] -0.008 | [18] -0.004 | [19] -0.031 | [20] 0.003

YJU2 (UniProt Q9BW85)
inactive: [1] 0.035 | [2] 0 | [3] 0.098 | [4] -0.01 | [5] 0.007 | [6] 0.033 | [7] -0.106 | [8] 0.038 | [9] -0.036 | [10] 0.033 | [11] 0.052 | [12] -0.007 | [13] 0.023 | [14] -0.092 | [15] -0.056 | [16] 0.032 | [17] 0.016 | [18] 0.003 | [19] 0.011 | [20] 0.028

ZDHHC14 (UniProt Q8IZN3)
inactive: [1] -0.004 | [2] 0.051 | [3] 0.025 | [4] 0.077 | [5] 0.026 | [6] -0.005 | [7] 0.036 | [8] -0.166 | [9] 0.058 | [10] -0.1 | [11] 0.018 | [12] -0.049 | [13] -0.025 | [14] 0.038 | [15] 0.002 | [16] 0.015 | [17] 0.032 | [18] -0.028 | [19] 0 | [20] 0.057

YME1L1 (UniProt Q96TA2)
inactive: [1] 0.032 | [2] -0.028 | [3] -0.029 | [4] 0.013 | [5] 0.019 | [6] 0.01 | [7] -0.037 | [8] -0.008 | [9] 0.014 | [10] 0.008 | [11] -0.018 | [12] 0.013 | [13] -0.009 | [14] -0.011 | [15] 0.008 | [16] -0.069 | [17] 0.041 | [18] 0.008 | [19] 0.025 | [20] 0.051

YTHDF2 (UniProt Q9Y5A9)
inactive: [1] -0.013 | [2] 0.023 | [3] -0.01 | [4] -0.01 | [5] -0.024 | [6] 0.014 | [7] -0.041 | [8] 0.026 | [9] -0.06 | [10] -0.024 | [11] -0.014 | [12] 0.068 | [13] -0.039 | [14] 0.007 | [15] 0.005 | [16] -0.023 | [17] 0.063 | [18] 0.03 | [19] 0.019 | [20] 0.052

Reprinted at random: two entries already listed
YTHDF2 (UniProt Q9Y5A9)
inactive: [1] -0.013 | [2] 0.023 | [3] -0.01 | [4] -0.01 | [5] -0.024 | [6] 0.014 | [7] -0.041 | [8] 0.026 | [9] -0.06 | [10] -0.024 | [11] -0.014 | [12] 0.068 | [13] -0.039 | [14] 0.007 | [15] 0.005 | [16] -0.023 | [17] 0.063 | [18] 0.03 | [19] 0.019 | [20] 0.052

ZBTB8OS (UniProt Q8IWT0)
inactive: [1] -0.045 | [2] 0.034 | [3] 0.067 | [4] -0.006 | [5] 0.09 | [6] 0.033 | [7] -0.069 | [8] 0.017 | [9] 0.063 | [10] -0.086 | [11] -0.052 | [12] -0.054 | [13] -0.099 | [14] -0.114 | [15] -0.043 | [16] -0.039 | [17] -0.008 | [18] -0.004 | [19] -0.031 | [20] 0.003

(continued)

ZC3H14 (UniProt Q6PJT7)
inactive: [1] 0.049 | [2] 0.092 | [3] -0.031 | [4] -0.076 | [5] -0.194 | [6] 0.036 | [7] -0.04 | [8] -0.049 | [9] -0.052 | [10] 0.034 | [11] -0.007 | [12] 0 | [13] -0.079 | [14] 0.042 | [15] 0.027 | [16] 0.136 | [17] 0.067 | [18] 0.086 | [19] 0.057 | [20] 0.178

YWHAH (UniProt Q04917)
inactive: [1] -0.036 | [2] -0.001 | [3] -0.194 | [4] 0.01 | [5] -0.033 | [6] 0.016 | [7] 0.024 | [8] -0.005 | [9] -0.034 | [10] 0.015 | [11] 0.113 | [12] 0.001 | [13] 0.003 | [14] 0.065 | [15] 0.028 | [16] 0.009 | [17] -0.064 | [18] -0.033 | [19] 0.01 | [20] -0.084

YAF2 isoform 5 (UniProt Q8IY57)
inactive: [1] -0.109 | [2] -0.038 | [3] 0.033 | [4] 0.042 | [5] 0.065 | [6] -0.068 | [7] 0.235 | [8] -0.113 | [9] 0.049 | [10] -0.104 | [11] 0.164 | [12] 0.023 | [13] 0.002 | [14] -0.039 | [15] -0.044 | [16] -0.084 | [17] -0.054 | [18] 0.018 | [19] 0.071 | [20] -0.229

YBX3 (UniProt P16989)
inactive: [1] -0.141 | [2] -0.125 | [3] -0.327 | [4] 0.041 | [5] -0.058 | [6] -0.013 | [7] -0.074 | [8] -0.023 | [9] 0.099 | [10] -0.108 | [11] -0.111 | [12] 0.099 | [13] 0.149 | [14] 0.093 | [15] 0.229 | [16] 0.102 | [17] 0.109 | [18] 0.232 | [19] 0.025 | [20] -0.501

YWHAG (UniProt P61981)
inactive: [1] 0.012 | [2] 0 | [3] 0.077 | [4] -0.01 | [5] -0.145 | [6] -0.024 | [7] 0.038 | [8] 0.02 | [9] -0.009 | [10] 0.056 | [11] 0.094 | [12] 0.039 | [13] 0.057 | [14] 0.187 | [15] 0.033 | [16] 0.093 | [17] -0.125 | [18] -0.038 | [19] 0.011 | [20] -0.031

ZC3H15 (UniProt Q8WU90)
inactive: [1] -0.015 | [2] -0.021 | [3] -0.094 | [4] -0.002 | [5] -0.058 | [6] -0.02 | [7] -0.083 | [8] -0.001 | [9] -0.016 | [10] -0.055 | [11] -0.016 | [12] 0.025 | [13] 0.052 | [14] 0.029 | [15] 0.089 | [16] 0.084 | [17] 0.05 | [18] 0.099 | [19] -0.018 | [20] 0.116

YTHDF3 (UniProt Q7Z739)
inactive: [1] -0.035 | [2] 0.013 | [3] -0.044 | [4] 0.044 | [5] 0.095 | [6] -0.009 | [7] -0.02 | [8] 0.014 | [9] -0.003 | [10] -0.02 | [11] -0.033 | [12] 0.029 | [13] 0.003 | [14] -0.002 | [15] 0.007 | [16] -0.003 | [17] 0.011 | [18] -0.001 | [19] 0.014 | [20] 0.016

XPR1 (UniProt Q9UBH6)
inactive: [1] -0.027 | [2] 0.055 | [3] 0.001 | [4] 0.034 | [5] 0.019 | [6] 0.01 | [7] 0.029 | [8] -0.042 | [9] -0.032 | [10] 0.011 | [11] 0.079 | [12] 0.041 | [13] -0.066 | [14] -0.017 | [15] 0.023 | [16] 0.1 | [17] -0.006 | [18] -0.019 | [19] -0.007 | [20] 0.079

ZNF148 (UniProt Q9UQR1)
inactive: [1] 0.041 | [2] -0.216 | [3] 0.034 | [4] 0.187 | [5] 0.081 | [6] 0.162 | [7] 0.267 | [8] -0.078 | [9] -0.053 | [10] 0.026 | [11] -0.01 | [12] -0.155 | [13] 0.151 | [14] 0.046 | [15] 0.07 | [16] -0.1 | [17] 0.097 | [18] -0.029 | [19] -0.084 | [20] 0.281
